Measured values as given in US20240091172A1, “DRUG FOR ANTAGONIZING REPLICATION OF PORCINE REPRODUCTIVE AND RESPIRATORY SYNDROME VIRUS AND APPLICATION THEREOF” (NANJING AGRICULTURAL UNIVERSITY, priority 2019, published 2024).
Some entries share one result that the patent states for a list of compounds.

Legend:
Marc-145 cells = assay: Cytotoxicity to Marc-145 cells (CCK8, CC50); format: cell-based; settings: did not produce cytotoxicity within this concentration
Experimental: Cell viability was detected with the enhanced CCK8 kit. The concentration (CC50) at which Xn was cytotoxic to 50% of the cells was calculated using GraphPad Prism 7.0 software. DMSO was used as a negative control.
Further, the inhibitory efficiency of Xn on PRRSV in Marc145 cells was detected by indirect immunofluorescence. […] To further determine the dose range of Xn with the anti-PRRSV activity, Marc-145 cells were treated with 5 μM, 10 μM, and 15 μM Xn respectively, and then infected with PRRSV (0.01 MOI).

PRRSV = assay: Natural product drug library screening, PRRSV infection of Marc-145 cells; format: cell-based, porcine reproductive and respiratory syndrome virus
Experimental: Marc-145 cells were treated with 10 μM of natural products and then infected with PRRSV. In the first round of screening, 24 compounds (6.21%) had no obvious cytotoxicity to Marc-145 cells and could reduce PRRSV-induced CPE by 50% (FIG. 1A).

SMILES | concentration producing cytotoxicity to Marc-145 cells (Marc-145 cells) [µM] | selectivity index SI (PRRSV)
COc1cc(OC)c(C(=O)/C=C/c2ccc(O)cc2)c(OC)c1 [Xn-2] | > 50 | 
COc1cc(O)c(C(=O)/C=C/c2ccc(O)cc2)c(OC)c1 [Xn-4] | > 50 | 
COc1cc(/C=C/C(=O)CC(=O)/C=C/c2ccc(O)c(OC)c2)ccc1O [curcumin] |  | > 10
Oc1c(Cl)cc(Cl)c2cccnc12 [chloroxine, reference compound] |  | > 10
COc1cc(O)c(CC=C(C)C)c(O)c1C(=O)/C=C/c1ccc(O)cc1 [Xn, xanthohumol] |  | > 10
